Test results reported in publication PMC5484543.
Results are given in words; binding and its absence hold for the method and conditions named. In cells and extracts the contact can be indirect. A yes stands for co-enrichment or nearness to the bait. Other partners may have been found. Where a sequence is shown, tags or fusion partners need not be part of it.

By UniProt entry, the sequences of proteins in these tests, tags left out. Residues count along the entry.
UniProt Q9NU22: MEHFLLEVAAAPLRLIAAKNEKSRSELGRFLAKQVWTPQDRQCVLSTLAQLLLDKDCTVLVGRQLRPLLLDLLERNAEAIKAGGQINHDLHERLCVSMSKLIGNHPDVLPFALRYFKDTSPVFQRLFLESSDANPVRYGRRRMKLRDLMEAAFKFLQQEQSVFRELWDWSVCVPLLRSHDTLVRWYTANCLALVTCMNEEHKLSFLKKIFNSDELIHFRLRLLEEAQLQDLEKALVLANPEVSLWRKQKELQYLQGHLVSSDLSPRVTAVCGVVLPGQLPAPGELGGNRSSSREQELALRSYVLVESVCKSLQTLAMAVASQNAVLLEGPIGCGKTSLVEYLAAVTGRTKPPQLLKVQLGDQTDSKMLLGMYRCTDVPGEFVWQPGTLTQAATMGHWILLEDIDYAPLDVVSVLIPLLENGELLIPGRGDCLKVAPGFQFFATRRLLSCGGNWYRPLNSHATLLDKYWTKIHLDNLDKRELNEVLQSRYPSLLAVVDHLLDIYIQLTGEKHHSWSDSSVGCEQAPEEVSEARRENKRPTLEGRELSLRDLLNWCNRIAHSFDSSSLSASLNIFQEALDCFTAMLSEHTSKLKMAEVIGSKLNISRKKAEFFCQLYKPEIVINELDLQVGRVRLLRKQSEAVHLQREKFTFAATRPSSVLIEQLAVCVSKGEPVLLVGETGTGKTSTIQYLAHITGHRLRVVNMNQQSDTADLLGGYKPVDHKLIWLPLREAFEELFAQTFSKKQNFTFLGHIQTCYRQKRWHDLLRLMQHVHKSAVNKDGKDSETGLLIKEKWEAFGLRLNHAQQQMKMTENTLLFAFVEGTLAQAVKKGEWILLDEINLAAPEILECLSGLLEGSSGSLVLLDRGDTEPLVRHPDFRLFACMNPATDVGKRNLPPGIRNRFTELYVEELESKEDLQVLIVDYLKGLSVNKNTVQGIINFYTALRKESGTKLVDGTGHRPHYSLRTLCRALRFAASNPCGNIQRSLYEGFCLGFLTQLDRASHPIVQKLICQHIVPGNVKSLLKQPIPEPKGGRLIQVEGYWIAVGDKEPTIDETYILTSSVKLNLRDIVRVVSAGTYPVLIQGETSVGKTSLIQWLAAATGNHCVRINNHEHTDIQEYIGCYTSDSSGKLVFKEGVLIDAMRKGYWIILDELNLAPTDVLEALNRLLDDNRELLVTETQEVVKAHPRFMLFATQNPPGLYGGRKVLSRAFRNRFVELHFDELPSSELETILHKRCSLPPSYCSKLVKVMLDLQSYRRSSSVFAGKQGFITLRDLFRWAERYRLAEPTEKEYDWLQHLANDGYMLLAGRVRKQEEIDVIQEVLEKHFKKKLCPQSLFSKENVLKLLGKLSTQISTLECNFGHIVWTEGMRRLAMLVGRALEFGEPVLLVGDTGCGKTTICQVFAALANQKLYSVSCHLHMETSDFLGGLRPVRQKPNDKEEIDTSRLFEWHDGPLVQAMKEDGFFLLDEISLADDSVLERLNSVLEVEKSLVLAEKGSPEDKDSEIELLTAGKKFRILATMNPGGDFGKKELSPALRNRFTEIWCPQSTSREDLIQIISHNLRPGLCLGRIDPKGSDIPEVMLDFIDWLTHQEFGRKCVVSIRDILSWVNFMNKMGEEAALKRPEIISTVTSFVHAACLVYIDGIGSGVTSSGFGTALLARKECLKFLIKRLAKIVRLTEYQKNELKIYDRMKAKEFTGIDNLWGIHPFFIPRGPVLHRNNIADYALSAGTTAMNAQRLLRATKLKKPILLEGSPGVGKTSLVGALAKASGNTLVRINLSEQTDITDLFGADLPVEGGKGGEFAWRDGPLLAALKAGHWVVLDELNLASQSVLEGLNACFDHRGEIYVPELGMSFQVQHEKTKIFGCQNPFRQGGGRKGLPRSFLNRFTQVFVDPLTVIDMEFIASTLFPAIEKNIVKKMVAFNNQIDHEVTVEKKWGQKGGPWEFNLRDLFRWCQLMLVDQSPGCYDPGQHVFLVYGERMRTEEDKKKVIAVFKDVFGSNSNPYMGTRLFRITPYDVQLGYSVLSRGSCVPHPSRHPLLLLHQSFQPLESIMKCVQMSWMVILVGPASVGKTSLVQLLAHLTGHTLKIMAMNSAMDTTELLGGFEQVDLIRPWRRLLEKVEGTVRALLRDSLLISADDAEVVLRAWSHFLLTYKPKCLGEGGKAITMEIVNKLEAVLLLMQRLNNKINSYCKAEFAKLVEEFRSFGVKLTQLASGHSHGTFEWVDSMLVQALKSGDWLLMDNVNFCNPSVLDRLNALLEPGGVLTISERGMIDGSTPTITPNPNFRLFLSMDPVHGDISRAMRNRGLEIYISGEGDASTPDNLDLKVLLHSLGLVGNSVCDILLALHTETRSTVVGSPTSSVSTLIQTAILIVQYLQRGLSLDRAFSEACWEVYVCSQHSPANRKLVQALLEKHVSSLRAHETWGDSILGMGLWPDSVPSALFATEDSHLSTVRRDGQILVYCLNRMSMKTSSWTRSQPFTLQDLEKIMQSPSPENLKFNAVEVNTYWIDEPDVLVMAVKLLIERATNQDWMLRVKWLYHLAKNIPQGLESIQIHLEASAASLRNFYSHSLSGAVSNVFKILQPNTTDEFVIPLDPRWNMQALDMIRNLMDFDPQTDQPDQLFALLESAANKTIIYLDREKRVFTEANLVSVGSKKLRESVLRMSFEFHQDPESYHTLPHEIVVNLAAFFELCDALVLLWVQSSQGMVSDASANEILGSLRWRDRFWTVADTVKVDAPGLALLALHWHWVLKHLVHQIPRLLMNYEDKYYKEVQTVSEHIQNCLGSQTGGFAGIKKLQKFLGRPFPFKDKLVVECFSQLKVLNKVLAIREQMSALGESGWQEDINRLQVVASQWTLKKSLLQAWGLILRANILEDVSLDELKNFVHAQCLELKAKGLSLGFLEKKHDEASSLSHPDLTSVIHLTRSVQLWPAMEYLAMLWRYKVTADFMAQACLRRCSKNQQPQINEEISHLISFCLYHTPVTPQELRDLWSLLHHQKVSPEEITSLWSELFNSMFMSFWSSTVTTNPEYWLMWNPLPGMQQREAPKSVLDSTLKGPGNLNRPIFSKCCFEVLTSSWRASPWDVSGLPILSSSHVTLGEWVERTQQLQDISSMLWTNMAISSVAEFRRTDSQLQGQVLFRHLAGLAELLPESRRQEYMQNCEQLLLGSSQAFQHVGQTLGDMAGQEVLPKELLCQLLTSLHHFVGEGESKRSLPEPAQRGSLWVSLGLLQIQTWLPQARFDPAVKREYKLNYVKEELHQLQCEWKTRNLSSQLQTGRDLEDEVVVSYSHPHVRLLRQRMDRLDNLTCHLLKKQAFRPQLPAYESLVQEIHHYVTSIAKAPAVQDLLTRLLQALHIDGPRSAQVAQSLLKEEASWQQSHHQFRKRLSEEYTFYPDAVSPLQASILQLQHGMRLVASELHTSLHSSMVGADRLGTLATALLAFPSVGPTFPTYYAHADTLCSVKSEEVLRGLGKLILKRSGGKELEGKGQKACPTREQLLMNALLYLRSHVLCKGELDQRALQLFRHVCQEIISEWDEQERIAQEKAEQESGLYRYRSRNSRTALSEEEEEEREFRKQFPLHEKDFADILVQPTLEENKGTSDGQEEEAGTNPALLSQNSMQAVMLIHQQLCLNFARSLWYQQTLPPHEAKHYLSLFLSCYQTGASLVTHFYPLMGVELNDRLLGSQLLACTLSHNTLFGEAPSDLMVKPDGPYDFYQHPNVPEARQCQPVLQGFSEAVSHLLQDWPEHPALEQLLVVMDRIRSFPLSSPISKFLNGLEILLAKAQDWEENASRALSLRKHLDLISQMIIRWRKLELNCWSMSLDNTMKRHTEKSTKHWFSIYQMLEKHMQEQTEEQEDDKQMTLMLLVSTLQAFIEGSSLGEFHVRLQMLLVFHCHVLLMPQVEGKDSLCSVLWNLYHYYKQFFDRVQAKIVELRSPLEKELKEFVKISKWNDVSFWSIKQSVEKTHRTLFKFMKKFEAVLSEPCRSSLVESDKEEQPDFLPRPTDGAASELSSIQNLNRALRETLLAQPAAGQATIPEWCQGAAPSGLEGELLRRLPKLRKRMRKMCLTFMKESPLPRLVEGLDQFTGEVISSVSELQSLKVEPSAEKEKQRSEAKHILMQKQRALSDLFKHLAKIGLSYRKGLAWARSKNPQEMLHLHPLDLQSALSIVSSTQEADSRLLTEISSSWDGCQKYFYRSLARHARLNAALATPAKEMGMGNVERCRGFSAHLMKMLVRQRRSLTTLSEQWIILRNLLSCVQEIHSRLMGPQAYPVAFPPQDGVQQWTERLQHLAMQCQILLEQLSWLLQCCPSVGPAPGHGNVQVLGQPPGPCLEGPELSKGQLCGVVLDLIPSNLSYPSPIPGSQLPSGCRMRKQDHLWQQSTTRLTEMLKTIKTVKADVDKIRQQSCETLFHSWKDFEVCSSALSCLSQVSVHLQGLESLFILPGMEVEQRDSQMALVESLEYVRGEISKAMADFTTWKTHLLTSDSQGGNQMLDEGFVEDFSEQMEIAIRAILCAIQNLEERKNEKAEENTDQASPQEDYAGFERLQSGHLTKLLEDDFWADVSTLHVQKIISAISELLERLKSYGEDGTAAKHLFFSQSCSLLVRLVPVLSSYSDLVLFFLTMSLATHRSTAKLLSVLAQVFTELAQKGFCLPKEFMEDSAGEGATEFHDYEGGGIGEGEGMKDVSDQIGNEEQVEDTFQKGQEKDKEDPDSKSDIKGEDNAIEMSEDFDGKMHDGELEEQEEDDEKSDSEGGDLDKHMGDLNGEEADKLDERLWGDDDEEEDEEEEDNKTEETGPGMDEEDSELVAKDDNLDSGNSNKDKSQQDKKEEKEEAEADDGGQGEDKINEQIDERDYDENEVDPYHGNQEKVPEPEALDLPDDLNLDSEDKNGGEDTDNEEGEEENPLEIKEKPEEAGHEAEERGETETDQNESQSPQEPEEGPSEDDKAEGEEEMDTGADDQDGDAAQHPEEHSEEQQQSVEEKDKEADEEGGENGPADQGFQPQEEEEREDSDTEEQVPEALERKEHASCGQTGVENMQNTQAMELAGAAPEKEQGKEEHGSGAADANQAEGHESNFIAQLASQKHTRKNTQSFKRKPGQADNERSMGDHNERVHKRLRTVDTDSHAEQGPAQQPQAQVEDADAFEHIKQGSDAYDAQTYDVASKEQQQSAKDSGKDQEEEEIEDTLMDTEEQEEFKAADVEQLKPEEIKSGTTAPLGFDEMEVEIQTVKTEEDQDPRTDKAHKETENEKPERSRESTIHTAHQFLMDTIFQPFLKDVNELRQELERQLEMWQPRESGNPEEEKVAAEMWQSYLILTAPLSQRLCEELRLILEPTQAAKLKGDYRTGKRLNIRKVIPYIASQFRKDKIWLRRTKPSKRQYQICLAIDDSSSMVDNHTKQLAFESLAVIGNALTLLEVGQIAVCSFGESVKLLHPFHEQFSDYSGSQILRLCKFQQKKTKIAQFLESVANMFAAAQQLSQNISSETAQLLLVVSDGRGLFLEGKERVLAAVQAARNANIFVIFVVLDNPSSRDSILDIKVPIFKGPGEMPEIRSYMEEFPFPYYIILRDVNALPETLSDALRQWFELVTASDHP
UniProt P25705, residues 44-553: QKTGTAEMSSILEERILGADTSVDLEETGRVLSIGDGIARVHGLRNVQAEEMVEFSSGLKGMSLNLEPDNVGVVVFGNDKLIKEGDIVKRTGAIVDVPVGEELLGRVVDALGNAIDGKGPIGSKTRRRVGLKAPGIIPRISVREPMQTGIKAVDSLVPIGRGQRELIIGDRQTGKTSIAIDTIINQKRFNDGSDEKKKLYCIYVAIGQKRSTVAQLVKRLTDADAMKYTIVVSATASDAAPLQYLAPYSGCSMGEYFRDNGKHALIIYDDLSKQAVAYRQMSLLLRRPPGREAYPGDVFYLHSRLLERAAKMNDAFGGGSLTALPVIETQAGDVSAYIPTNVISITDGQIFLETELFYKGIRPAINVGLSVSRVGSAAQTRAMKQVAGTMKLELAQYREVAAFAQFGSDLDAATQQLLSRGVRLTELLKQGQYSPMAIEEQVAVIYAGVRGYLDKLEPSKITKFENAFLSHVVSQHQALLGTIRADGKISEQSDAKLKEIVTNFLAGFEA
UniProt P68104: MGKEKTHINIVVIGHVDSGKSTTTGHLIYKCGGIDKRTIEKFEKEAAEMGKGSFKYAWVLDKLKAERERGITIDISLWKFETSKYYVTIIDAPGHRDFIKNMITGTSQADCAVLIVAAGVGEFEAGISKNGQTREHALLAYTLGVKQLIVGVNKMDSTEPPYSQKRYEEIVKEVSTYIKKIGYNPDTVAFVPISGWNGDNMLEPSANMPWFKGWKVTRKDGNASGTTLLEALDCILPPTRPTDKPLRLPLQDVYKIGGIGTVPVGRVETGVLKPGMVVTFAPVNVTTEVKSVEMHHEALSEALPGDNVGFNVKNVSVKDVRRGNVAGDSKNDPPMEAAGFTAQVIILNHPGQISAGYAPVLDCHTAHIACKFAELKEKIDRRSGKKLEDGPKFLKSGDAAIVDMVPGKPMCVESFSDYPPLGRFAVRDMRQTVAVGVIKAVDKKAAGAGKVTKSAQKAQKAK

What follows are substances tested against T1, 3xFLAG-B12 (UniProt Q9NXW2) (assay: affinity purification with mass spectrometry; 3xFLAG-B12 stable Flp-In 293 T-REx cells; digitonin-permeabilised, pellet lysed in 50 mM Hepes pH 7.5, 150 mM NaCl, 1% deoxy Big CHAP; anti-FLAG M2 antibody and Protein G magnetic beads, 4°C; eluted with 3xFLAG peptide; shot gun mass spectrometry; parental cells as control).
T1 sequence: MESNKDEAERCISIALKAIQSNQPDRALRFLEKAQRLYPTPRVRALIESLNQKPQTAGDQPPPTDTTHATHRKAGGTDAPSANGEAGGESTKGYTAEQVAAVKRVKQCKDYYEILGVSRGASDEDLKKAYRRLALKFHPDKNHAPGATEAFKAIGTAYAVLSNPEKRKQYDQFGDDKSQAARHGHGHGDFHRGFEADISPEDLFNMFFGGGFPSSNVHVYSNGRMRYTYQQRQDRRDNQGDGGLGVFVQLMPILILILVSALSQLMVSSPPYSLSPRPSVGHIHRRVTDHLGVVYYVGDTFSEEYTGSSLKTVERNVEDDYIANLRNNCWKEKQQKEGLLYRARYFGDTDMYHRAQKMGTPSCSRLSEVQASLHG

| binding | Substance |
| --- | --- |
| binds | HSPA1L (from UniProt P34931 1-641) |
| binds | BAG2 (from UniProt O95816 1-211) |
| binds | MDN1 (from UniProt Q9NU22 1-5596) |
| binds | VCP (from UniProt P55072 1-806) |
| binds | COPB1 (from UniProt P53618 1-953) |
| binds | SLC25A4 (from UniProt P12235 1-298) |
| binds | ATP2A1 (from UniProt O14983 1-1001) |
| binds | TUBB4A (from UniProt P04350 1-444) |
| binds | COPA (from UniProt P53621 1-1224) |
| binds | STK38 (from UniProt Q15208 1-465) |
| binds | CANX (from UniProt P27824 21-592) |
| binds | TUBB (from UniProt P07437 1-444) |
| binds | Hsc70 (from UniProt P11142 1-646) |
| binds | TUBB1 (from UniProt Q9H4B7 1-451) |
| binds | MAP1B (from UniProt P46821 1-2468) |
| binds | PRKDC (from UniProt P78527 1-4128) |
| binds | HSPA9 (from UniProt P38646 47-679) |
| binds | TRIM21 (from UniProt P19474 1-475) |
| binds | PARP1 (from UniProt P09874 1-1014) |
| binds | ATP5A1 (from UniProt P25705 44-553) |
| binds | ATP5B (from UniProt P06576 48-529) |
| binds | TUBB2A (from UniProt Q13885 1-445) |
| binds | NUP210 (from UniProt Q8TEM1 27-1887) |
| binds | TUBB3 (from UniProt Q13509 1-450) |
| binds | ITPR3 (from UniProt Q14573 1-2671) |
| binds | EEF1A1 (from UniProt P68104 1-462) |
| binds | GCN1L1 (from UniProt Q92616 1-2671) |
| binds | ATAD3A (from UniProt Q9NVI7-1) |
| binds | CAD (from UniProt P27708 1-2225) |
| binds | AIFM1 (from UniProt O95831) |
